{"source": "paper PMC9200688", "about": "“The production and biochemical characterization of α-carbonic anhydrase from Lactobacillus rhamnosus GG” (Applied Microbiology and Biotechnology, 2022)", "target": "T1, α-carbonic anhydrase of L. rhamnosus (LrhCA) (Lacticaseibacillus rhamnosus, UniProt A0A809N5C7)", "T1 sequence (A0A809N5C7 1-215)": "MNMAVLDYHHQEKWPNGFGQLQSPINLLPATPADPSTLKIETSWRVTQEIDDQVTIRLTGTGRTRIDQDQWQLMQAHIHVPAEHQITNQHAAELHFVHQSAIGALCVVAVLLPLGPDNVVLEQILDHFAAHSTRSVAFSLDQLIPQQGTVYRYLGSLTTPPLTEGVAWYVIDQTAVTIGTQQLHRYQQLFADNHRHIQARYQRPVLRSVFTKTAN", "test": "Sulfonamide inhibition of LrhCA, stopped-flow CO2 hydrase assay", "format": "biochemical, Lactobacillus rhamnosus GG", "note": "“And” between values parts separate entries of the source, which are not always exact repeats. Equal entries are not always repeated.", "data": [{"compound": "CCN[C@H]1C[C@H](C)S(=O)(=O)c2sc(S(N)(=O)=O)cc21", "note": "[DZA, dorzolamide, reference compound]", "values": [{"measurement": "Ki", "value": "< 720 nM and 474 nM"}]}, {"compound": "CC(=O)Nc1nnc(S(N)(=O)=O)s1", "note": "[AAZ, acetazolamide]", "values": [{"measurement": "Ki", "value": 733, "unit": "nM"}]}]}
